Source: PMC9637222, “Autoinducer-2 and bile salts induce c-di-GMP synthesis to repress the T3SS via a T3SS chaperone” (Nature Communications, 2022)
Results are given in words; binding and its absence hold for the method and conditions named. In cells and extracts the contact can be indirect. Some entries that bind do so weakly or less than the wild type.

By UniProt entry, the sequences of proteins in these tests, tags left out.
UniProt P69066: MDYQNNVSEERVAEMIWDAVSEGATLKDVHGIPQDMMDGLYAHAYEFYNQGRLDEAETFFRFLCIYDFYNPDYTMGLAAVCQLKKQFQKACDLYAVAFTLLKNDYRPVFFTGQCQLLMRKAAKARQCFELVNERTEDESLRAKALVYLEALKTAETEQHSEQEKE
UniProt P0CL47: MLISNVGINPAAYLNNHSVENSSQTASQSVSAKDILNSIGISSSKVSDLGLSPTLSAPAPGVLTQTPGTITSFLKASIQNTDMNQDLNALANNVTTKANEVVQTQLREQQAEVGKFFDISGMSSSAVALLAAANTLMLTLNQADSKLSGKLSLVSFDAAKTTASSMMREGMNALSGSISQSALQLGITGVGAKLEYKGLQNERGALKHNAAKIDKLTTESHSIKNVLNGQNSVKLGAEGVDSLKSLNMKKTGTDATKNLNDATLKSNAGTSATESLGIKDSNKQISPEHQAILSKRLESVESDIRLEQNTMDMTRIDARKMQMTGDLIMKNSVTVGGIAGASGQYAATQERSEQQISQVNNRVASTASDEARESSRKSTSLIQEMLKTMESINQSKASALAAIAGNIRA

Biological target: SicA-HA (S. Typhimurium) (UniProt P69066)
Experiment: co-IP

How did the binding turn out when SipC-His6 (from UniProt P0CL47 1-409) was run?
Its binding is “binds”.
